The source of these data is publication PMC7878476.

No constants are given. Whether binding was seen depends on the method and setting.

In experiment [1] the target is isolated C-terminal domain of DnaJB8, CTD_(170–232) (human) (UniProt Q8NHS0). The experiment in a line: cross-linking; single recombinant proteins (100 μM) in 1× PBS, 37 °C, 30 min, ADH/DMTMM or DSS; SDS-PAGE and XL–MS; both purified.
The target is the same in experiment [2]. The experiment can be described thus: SEC-MALS; Superdex 200 Increase 10/300 in 1× PBS with 1 mM TCEP, 0.5 mL/min; 5.1, 5.0 and 6.6 mg/mL loaded for DnaJB8F→S, JD and CTD; both purified. In general terms: Size exclusion chromatography separates by hydrodynamic size, large species first.

B1: isolated C-terminal domain of DnaJB8, CTD_(170–232) (domain or fragment, UniProt Q8NHS0 170-232)
chain: GGSSSGSSGFKSVMSSTEMINGHKVTTKRIVENGQERVEVEEDGQLKSVTVNGKEQLKWMDSK
For the molecule B1, the binding entry in experiment [1] is on record as “no binding (tested: 100 μM)”; in experiment [2], “no binding (tested: 6.6 mg/mL)”.
